Measured values published in publication PMC11178498.
No constants are given. Whether binding was seen depends on the method and setting. Binding seen in cells or lysates may run through a third protein. Some results given as binding are weak or reduced against the parent protein; the word gives no strength.

Chains of the proteins cited; added tags and fusions are not shown.
UniProt Q8TEK3: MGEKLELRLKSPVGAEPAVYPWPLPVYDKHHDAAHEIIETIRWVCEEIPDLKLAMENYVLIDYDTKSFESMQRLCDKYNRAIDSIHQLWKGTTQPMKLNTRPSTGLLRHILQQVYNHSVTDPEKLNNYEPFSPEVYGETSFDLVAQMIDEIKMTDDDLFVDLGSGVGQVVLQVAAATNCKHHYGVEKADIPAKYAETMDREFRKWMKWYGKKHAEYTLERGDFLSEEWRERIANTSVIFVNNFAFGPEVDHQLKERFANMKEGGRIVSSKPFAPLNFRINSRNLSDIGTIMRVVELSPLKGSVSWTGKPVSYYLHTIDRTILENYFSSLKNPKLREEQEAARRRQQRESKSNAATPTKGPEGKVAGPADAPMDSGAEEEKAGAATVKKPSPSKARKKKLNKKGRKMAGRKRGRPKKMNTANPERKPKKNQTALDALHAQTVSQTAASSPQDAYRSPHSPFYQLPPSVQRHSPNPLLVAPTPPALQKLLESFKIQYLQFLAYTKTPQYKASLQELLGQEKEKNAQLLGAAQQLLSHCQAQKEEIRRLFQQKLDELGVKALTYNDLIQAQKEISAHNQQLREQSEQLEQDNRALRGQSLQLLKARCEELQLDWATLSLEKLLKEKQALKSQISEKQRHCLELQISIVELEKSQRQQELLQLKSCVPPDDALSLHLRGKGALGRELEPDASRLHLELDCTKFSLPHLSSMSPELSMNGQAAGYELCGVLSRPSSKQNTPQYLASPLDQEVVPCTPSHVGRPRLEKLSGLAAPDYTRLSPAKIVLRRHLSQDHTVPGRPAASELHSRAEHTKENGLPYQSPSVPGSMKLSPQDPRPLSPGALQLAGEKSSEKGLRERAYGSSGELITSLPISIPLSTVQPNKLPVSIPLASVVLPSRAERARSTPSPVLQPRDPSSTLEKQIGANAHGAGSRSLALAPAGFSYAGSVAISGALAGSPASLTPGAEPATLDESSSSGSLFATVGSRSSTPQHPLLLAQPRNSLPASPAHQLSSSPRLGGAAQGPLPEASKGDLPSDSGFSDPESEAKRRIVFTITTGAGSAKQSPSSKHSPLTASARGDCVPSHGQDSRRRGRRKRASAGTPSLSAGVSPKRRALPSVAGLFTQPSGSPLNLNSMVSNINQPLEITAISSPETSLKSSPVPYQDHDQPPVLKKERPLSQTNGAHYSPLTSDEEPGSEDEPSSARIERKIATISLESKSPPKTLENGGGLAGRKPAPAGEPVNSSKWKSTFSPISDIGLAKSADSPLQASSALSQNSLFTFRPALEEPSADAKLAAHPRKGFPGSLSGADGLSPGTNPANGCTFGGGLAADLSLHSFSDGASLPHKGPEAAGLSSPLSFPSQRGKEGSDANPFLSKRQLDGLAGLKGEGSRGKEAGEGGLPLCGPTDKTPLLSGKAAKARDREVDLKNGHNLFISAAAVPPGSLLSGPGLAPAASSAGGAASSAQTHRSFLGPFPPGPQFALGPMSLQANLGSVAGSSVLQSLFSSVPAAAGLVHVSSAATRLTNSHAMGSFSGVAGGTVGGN
UniProt Q92793: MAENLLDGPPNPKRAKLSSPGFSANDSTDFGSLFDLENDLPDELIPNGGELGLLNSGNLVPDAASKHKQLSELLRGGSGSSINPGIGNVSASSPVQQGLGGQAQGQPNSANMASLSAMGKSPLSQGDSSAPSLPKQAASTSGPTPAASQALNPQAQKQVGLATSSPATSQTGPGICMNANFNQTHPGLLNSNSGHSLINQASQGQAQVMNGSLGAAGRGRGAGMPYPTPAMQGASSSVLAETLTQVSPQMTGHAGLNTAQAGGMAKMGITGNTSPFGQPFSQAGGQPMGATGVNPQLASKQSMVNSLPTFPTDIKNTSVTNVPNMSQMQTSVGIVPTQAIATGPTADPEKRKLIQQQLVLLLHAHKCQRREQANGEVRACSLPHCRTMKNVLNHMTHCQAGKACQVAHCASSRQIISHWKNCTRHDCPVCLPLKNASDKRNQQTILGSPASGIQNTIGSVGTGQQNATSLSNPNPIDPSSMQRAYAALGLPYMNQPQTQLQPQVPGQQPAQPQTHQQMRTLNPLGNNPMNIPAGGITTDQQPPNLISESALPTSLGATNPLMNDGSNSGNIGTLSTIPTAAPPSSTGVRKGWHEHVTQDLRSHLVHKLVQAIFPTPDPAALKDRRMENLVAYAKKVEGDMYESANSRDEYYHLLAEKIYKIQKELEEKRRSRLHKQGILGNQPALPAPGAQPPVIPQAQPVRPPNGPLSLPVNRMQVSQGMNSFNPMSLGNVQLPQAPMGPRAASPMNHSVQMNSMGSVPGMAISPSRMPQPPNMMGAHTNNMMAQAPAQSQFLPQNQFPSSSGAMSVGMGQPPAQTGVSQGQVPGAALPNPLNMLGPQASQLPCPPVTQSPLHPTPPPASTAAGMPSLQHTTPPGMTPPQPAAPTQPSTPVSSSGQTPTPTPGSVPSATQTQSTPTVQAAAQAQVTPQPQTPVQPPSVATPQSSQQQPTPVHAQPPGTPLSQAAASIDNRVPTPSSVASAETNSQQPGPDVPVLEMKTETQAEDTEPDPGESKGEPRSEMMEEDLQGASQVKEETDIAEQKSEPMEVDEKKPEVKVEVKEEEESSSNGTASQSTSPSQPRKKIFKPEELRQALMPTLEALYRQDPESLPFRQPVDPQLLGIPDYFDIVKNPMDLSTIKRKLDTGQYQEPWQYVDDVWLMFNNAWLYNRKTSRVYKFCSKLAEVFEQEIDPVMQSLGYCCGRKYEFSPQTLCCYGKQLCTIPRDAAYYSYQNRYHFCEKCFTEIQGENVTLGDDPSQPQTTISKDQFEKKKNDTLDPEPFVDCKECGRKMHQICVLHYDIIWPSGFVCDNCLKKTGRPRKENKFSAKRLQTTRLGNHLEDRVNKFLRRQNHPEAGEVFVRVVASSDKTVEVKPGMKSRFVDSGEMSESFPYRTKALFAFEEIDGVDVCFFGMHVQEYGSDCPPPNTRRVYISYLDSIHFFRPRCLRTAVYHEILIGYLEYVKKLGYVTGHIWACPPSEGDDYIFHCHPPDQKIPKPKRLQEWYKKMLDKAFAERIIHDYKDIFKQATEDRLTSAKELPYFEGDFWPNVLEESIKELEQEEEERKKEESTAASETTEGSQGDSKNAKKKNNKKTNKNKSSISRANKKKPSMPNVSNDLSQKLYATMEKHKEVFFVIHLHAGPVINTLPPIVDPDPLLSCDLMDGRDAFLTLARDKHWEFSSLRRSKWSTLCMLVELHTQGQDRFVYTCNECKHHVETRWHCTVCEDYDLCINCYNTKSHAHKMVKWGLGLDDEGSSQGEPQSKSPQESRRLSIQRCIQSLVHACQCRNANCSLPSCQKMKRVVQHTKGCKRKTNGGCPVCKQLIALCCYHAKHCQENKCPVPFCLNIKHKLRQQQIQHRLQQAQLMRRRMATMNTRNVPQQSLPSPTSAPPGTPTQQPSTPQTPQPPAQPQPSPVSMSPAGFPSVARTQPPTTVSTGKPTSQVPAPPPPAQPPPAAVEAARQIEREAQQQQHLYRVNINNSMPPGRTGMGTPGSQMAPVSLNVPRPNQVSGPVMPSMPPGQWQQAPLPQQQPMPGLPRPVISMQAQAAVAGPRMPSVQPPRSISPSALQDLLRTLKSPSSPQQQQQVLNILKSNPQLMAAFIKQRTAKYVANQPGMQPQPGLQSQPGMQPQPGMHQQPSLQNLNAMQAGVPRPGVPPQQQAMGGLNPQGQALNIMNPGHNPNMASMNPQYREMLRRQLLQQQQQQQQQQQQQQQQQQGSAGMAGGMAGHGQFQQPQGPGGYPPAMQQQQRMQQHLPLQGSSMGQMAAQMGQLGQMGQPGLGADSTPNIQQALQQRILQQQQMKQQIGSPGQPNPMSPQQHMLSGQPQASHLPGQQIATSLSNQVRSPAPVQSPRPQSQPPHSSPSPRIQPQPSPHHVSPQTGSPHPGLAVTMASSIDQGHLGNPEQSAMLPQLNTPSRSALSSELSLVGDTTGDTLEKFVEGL

Columns and labels:
[1] = target: DOT1L (disruptor of telomeric silencing one like), endogenous (human (endogenous in MOLM-13 and MV4-11)) (UniProt Q8TEK3); experiment: co-IP; endogenous proteins; MOLM-13 and MV4-11 cell lysates, IP with CBP, DOT1L or control IgG, protein A/G agarose, western blotting
[2] = target: CBP (CREB binding protein), endogenous (human (endogenous in MOLM-13 and MV4-11)) (UniProt Q92793); experiment: as above

binding [1]	binding [2]	Substance
binds		CBP (CREB binding protein), endogenous (from UniProt Q92793 1-2442)
	binds	DOT1L (disruptor of telomeric silencing one like), endogenous (from UniProt Q8TEK3 1-1537)
